From publication PMC4657622 come the findings set out here.

Amino acid sequences for entries named in this document (tags omitted).
UniProt Q08024: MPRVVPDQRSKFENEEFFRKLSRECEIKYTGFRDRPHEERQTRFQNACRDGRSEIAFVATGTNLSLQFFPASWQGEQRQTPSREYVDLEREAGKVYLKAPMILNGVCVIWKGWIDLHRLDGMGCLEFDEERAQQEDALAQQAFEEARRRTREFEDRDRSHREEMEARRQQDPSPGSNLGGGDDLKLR
UniProt Q03347: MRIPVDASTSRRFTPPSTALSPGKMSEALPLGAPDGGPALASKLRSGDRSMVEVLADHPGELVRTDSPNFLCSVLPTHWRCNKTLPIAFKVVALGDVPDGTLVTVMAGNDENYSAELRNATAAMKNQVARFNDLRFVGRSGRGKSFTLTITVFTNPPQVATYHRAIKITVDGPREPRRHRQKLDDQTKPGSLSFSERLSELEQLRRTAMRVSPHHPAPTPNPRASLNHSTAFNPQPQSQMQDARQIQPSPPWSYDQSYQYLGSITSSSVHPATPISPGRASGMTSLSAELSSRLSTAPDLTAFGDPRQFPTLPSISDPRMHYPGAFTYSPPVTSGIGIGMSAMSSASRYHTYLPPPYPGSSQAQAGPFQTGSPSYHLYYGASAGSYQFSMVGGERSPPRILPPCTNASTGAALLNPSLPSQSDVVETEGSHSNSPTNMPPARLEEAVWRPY

The target in this assay is N-terminally Flag-tagged CBFβ protein (Flag-CBFβ) (mouse (endogenous locus, knockin)) (UniProt Q08024). The assay can be described thus: co-IP; anti-Flag M2 affinity gel on clarified lysates of acutely dissected DRGs from P0 Cbfb^Flag/Flag and wildtype mice; lysis buffer 50 mM Tris HCl, 150 mM NaCl, 1 mM EDTA, 1% Triton X-100, pH 7.5; blots with Runx1 and CBFβ antibodies.

Results are given in words; binding and its absence hold for the method and conditions named. Binding seen in cells or lysates may run through a third protein. Some entries that bind do so weakly or less than the wild type.

For Runx1 (from UniProt Q03347 1-451), the binding result is given as “binds”.
